This is one part of the list. Many values rest on one well or one pass, so single values are uncertain.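 Imaging used 1,536-well plates; nuclei positive for cleaved PARP by antibody were divided by total DNA-stained nuclei to yield the apoptosis fraction. Doses for screening kept most cells viable, and cell lines differ markedly in resting and induced cleaved-PARP levels.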
System: CBRC013 (line from a melanoma biopsy)
Assay: cleaved PARP positive nuclei fraction relative to DMSO control; melanoma cells; higher = more apoptosis
Conditions: library dose: low library concentration; 72 h

Row | Structure (SMILES) | cleaved PARP positive nuclei fraction [%]
1 | CC(C)C[C@H](NC(=O)[C@H](Cc1ccccc1)NC(=O)c1cnccn1)B(O)O [Bortezomib] + Cc1ccc(NC(=O)c2cccc(N(C)C)c2)cc1NC(=O)c1ccc(O)cc1 [ZM336372] (first compound 0.001 µM, partner dose 2 µM) | 94.7
2 | CCCS(=O)(=O)Nc1ccc(F)c(C(=O)c2c[nH]c3ncc(Cl)cc23)c1F + CN(NC(=O)CC(=O)NN(C)C(=S)c1ccccc1)C(=S)c1ccccc1 [STA4783] (first compound 0.08 µM, partner dose 0.006 µM) | 117
3 | O=C(O)[C@@H]1[O][Sb](=[O])([O][Sb]2(=[O])[O][C@H]([C@H](O)CO)[C@H](O)[C@H](C(=O)O)[O]2)[O][C@H]([C@H](O)CO)[C@@H]1O (some centres undefined) [stibogluconate] + C[C@@H]1CCN(C(=O)CC#N)C[C@@H]1N(C)c1ncnc2[nH]ccc12 [CP690550] (first compound 2 µM, partner dose 1 µM) | 94.2
4 | C=C(c1ccc(C(=O)O)cc1)c1cc2c(cc1C)C(C)(C)CCC2(C)C [Bexarotene] + Cc1ccc(NC(=O)c2cccc(N(C)C)c2)cc1NC(=O)c1ccc(O)cc1 [ZM336372] (first compound 2 µM, partner dose 2 µM) | 81.6
5 | Cc1cc(Nc2cc(N3CCN(C)CC3)nc(/C=C/c3ccccc3)n2)n[nH]1 + CO[C@@H]1[C@H](N(C)C(=O)c2ccccc2)C[C@H]2O[C@]1(C)n1c3ccccc3c3c4c(c5c6ccccc6n2c5c31)C(=O)NC4 [Midostaurin] (first compound 0.04 µM, partner dose 0.08 µM) | 108

System: CBRC014 (line from a melanoma biopsy)
Assay: as above
Conditions: library dose: low library concentration; 72 h

Row | Structure (SMILES) | cleaved PARP positive nuclei fraction [%]
6 | Nc1ncn([C@H]2C[C@H](O)[C@@H](CO)O2)c(=O)n1 [decitabine] + Cc1cc(N2CCOCC2)cc2[nH]c(-c3c(NC[C@@H](O)c4cccc(Cl)c4)cc[nH]c3=O)nc12 [BMS536924] (first compound 0.1 µM, partner dose 0.2 µM) | 72.3
7 | Cn1c(=O)n(-c2ccc(C(C)(C)C#N)cc2)c2c3cc(-c4cnc5ccccc5c4)ccc3ncc21 + NCC(=O)Nc1ccc(-n2nc(C(F)(F)F)cc2-c2ccc3c(ccc4ccccc43)c2)cc1 [OSU03012] (first compound 0.004 µM, partner dose 1 µM) | 64.7
8 | CS(=O)(=O)CCNCc1ccc(-c2ccc3ncnc(Nc4ccc(OCc5cccc(F)c5)c(Cl)c4)c3c2)o1 [lapatinib] + O=C(Nc1cccc(Cl)c1)Nc1ncc(CCNc2ncnc3ccsc23)s1 [SNS314] (first compound 0.8 µM, partner dose 0.0008 µM) | 83.9
9 | CN1CCN(c2ccc3nc(-c4c(N)c5c(F)cccc5[nH]c4=O)[nH]c3c2)CC1 [Dovitinib] + CN(C)S(=O)(=O)c1ccc2c(c1)/C(=C/c1cc3c([nH]1)CCCC3)C(=O)N2 [SU6656] (first compound 0.1 µM, partner dose 0.4 µM) | 98.7
10 | C[C@@H](Oc1cc(-c2cnn(C3CCNCC3)c2)cnc1N)c1c(Cl)ccc(F)c1Cl [Crizotinib] + Cn1cncc1[C@@](N)(c1ccc(Cl)cc1)c1ccc2c(c1)c(-c1cccc(Cl)c1)cc(=O)n2C [tipifarnib] (first compound 0.2 µM, partner dose 0.01 µM) | 91.3
11 | CO[C@H]1C[C@@H]2CC[C@@H](C)[C@@](O)(O2)C(=O)C(=O)N2CCCC[C@H]2C(=O)O[C@H]([C@H](C)C[C@@H]2CC[C@@H](OCCO)[C@H](OC)C2)CC(=O)[C@H](C)/C=C(\C)[C@@H](O)[C@@H](OC)C(=O)[C@H](C)C[C@H](C)/C=C/C=C/C=C/1C [everolimus] + O=C(Nc1cccc(Cl)c1)Nc1ncc(CCNc2ncnc3ccsc23)s1 [SNS314] (first compound 0.02 µM, partner dose 0.0008 µM) | 160
12 | O=C(O)c1ccc2c(c1)nc(Nc1cccc(Cl)c1)c1ccncc12 + NC(=O)Nc1cc(-c2cccc(F)c2)sc1C(=O)N[C@H]1CCCNC1 [AZD7762] (first compound 0.4 µM, partner dose 0.02 µM) | 203
13 | Cn1c(=O)n(-c2ccc(C(C)(C)C#N)cc2)c2c3cc(-c4cnc5ccccc5c4)ccc3ncc21 + O=C(O)c1ccc(-c2c[nH]c3ncc(-c4ccccc4)cc23)cc1C1CCCC1 [GSK650394] (first compound 0.004 µM, partner dose 0.16 µM) | 98.6
14 | O=C(O)c1ccc2c(c1)nc(Nc1cccc(Cl)c1)c1ccncc12 + O=C(O)c1ccc(-c2c[nH]c3ncc(-c4ccccc4)cc23)cc1C1CCCC1 [GSK650394] (first compound 0.4 µM, partner dose 0.16 µM) | 129
15 | CC(C)C[C@H](NC(=O)[C@H](Cc1ccccc1)NC(=O)c1cnccn1)B(O)O [Bortezomib] + O=C(CCCCCCC(=O)Nc1ccccc1)NO [vorinostat] (first compound 0.001 µM, partner dose 0.08 µM) | 182
16 | O=C(O)c1ccc2c(c1)nc(Nc1cccc(Cl)c1)c1ccncc12 + O=C(Nc1cccc(Cl)c1)Nc1ncc(CCNc2ncnc3ccsc23)s1 [SNS314] (first compound 0.4 µM, partner dose 0.0008 µM) | 120
17 | Nc1nc(F)nc2c1ncn2[C@@H]1O[C@H](CO)[C@@H](O)[C@@H]1O [fludarabine] + C=CCn1c(=O)c2cnc(Nc3ccc(N4CCN(C)CC4)cc3)nc2n1-c1cccc(C(C)(C)O)n1 [MK1775] (first compound 0.2 µM, partner dose 0.02 µM) | 105
18 | Nc1ccn([C@@H]2O[C@H](CO)[C@@H](O)C2(F)F)c(=O)n1 [gemcitabine] + COc1cc(Nc2ncc(F)c(Nc3ccc4c(n3)NC(=O)C(C)(C)O4)n2)cc(OC)c1OC [Tamatinib] (first compound 0.0004 µM, partner dose 0.4 µM) | 125
19 | Cn1c(=O)n(-c2ccc(C(C)(C)C#N)cc2)c2c3cc(-c4cnc5ccccc5c4)ccc3ncc21 + COc1cc2c(Oc3ccc4[nH]c(C)cc4c3F)ncnc2cc1OCCCN1CCCC1 [cediranib] (first compound 0.004 µM, partner dose 0.4 µM) | 86.9
20 | Cc1cc(Nc2cc(N3CCN(C)CC3)nc(/C=C/c3ccccc3)n2)n[nH]1 + NC(=O)Nc1cc(-c2cccc(F)c2)sc1C(=O)N[C@H]1CCCNC1 [AZD7762] (first compound 0.04 µM, partner dose 0.02 µM) | 72
21 | Nc1nc(F)nc2c1ncn2[C@@H]1O[C@H](CO)[C@@H](O)[C@@H]1O [fludarabine] + O=C(Nc1cccc(Cl)c1)Nc1ncc(CCNc2ncnc3ccsc23)s1 [SNS314] (first compound 0.2 µM, partner dose 0.0008 µM) | 111
22 | CS(=O)(=O)CCNCc1ccc(-c2ccc3ncnc(Nc4ccc(OCc5cccc(F)c5)c(Cl)c4)c3c2)o1 [lapatinib] + CN(NC(=O)CC(=O)NN(C)C(=S)c1ccccc1)C(=S)c1ccccc1 [STA4783] (first compound 0.8 µM, partner dose 0.006 µM) | 510
23 | CC(C)C[C@H](NC(=O)[C@H](Cc1ccccc1)NC(=O)c1cnccn1)B(O)O [Bortezomib] + CO[C@@H]1[C@H](N(C)C(=O)c2ccccc2)C[C@H]2O[C@]1(C)n1c3ccccc3c3c4c(c5c6ccccc6n2c5c31)C(=O)NC4 [Midostaurin] (first compound 0.001 µM, partner dose 0.08 µM) | 258
24 | C[C@@H](Oc1cc(-c2cnn(C3CCNCC3)c2)cnc1N)c1c(Cl)ccc(F)c1Cl [Crizotinib] + O=C(O)c1ccc(-c2c[nH]c3ncc(-c4ccccc4)cc23)cc1C1CCCC1 [GSK650394] (first compound 0.2 µM, partner dose 0.16 µM) | 92.8
25 | CS(=O)(=O)CCNCc1ccc(-c2ccc3ncnc(Nc4ccc(OCc5cccc(F)c5)c(Cl)c4)c3c2)o1 [lapatinib] + NC(=O)Nc1cc(-c2cccc(F)c2)sc1C(=O)N[C@H]1CCCNC1 [AZD7762] (first compound 0.8 µM, partner dose 0.02 µM) | 83.3
26 | CNC(=O)c1cc(Oc2ccc(NC(=O)Nc3ccc(Cl)c(C(F)(F)F)c3)cc2)ccn1 [sorafenib] + NC(=O)Nc1cc(-c2cccc(F)c2)sc1C(=O)N[C@H]1CCCNC1 [AZD7762] (first compound 0.4 µM, partner dose 0.02 µM) | 89.2
27 | CN1CCN(c2ccc3nc(-c4c(N)c5c(F)cccc5[nH]c4=O)[nH]c3c2)CC1 [Dovitinib] + NCC(=O)Nc1ccc(-n2nc(C(F)(F)F)cc2-c2ccc3c(ccc4ccccc43)c2)cc1 [OSU03012] (first compound 0.1 µM, partner dose 1 µM) | 86.3
28 | C=C(c1ccc(C(=O)O)cc1)c1cc2c(cc1C)C(C)(C)CCC2(C)C [Bexarotene] + NC(=O)Nc1cc(-c2cccc(F)c2)sc1C(=O)N[C@H]1CCCNC1 [AZD7762] (first compound 2 µM, partner dose 0.02 µM) | 107
29 | Cn1c(=O)n(-c2ccc(C(C)(C)C#N)cc2)c2c3cc(-c4cnc5ccccc5c4)ccc3ncc21 + Cn1cncc1[C@@](N)(c1ccc(Cl)cc1)c1ccc2c(c1)c(-c1cccc(Cl)c1)cc(=O)n2C [tipifarnib] (first compound 0.004 µM, partner dose 0.01 µM) | 98

At a glance, part of the list above:
Row | Structure (SMILES) | cleaved PARP positive nuclei fraction [%]
16 | O=C(O)c1ccc2c(c1)nc(Nc1cccc(Cl)c1)c1ccncc12 + O=C(Nc1cccc(Cl)c1)Nc1ncc(CCNc2ncnc3ccsc23)s1 [SNS314] (first compound 0.4 µM, partner dose 0.0008 µM) | 120
17 | Nc1nc(F)nc2c1ncn2[C@@H]1O[C@H](CO)[C@@H](O)[C@@H]1O [fludarabine] + C=CCn1c(=O)c2cnc(Nc3ccc(N4CCN(C)CC4)cc3)nc2n1-c1cccc(C(C)(C)O)n1 [MK1775] (first compound 0.2 µM, partner dose 0.02 µM) | 105
18 | Nc1ccn([C@@H]2O[C@H](CO)[C@@H](O)C2(F)F)c(=O)n1 [gemcitabine] + COc1cc(Nc2ncc(F)c(Nc3ccc4c(n3)NC(=O)C(C)(C)O4)n2)cc(OC)c1OC [Tamatinib] (first compound 0.0004 µM, partner dose 0.4 µM) | 125
19 | Cn1c(=O)n(-c2ccc(C(C)(C)C#N)cc2)c2c3cc(-c4cnc5ccccc5c4)ccc3ncc21 + COc1cc2c(Oc3ccc4[nH]c(C)cc4c3F)ncnc2cc1OCCCN1CCCC1 [cediranib] (first compound 0.004 µM, partner dose 0.4 µM) | 86.9
20 | Cc1cc(Nc2cc(N3CCN(C)CC3)nc(/C=C/c3ccccc3)n2)n[nH]1 + NC(=O)Nc1cc(-c2cccc(F)c2)sc1C(=O)N[C@H]1CCCNC1 [AZD7762] (first compound 0.04 µM, partner dose 0.02 µM) | 72
21 | Nc1nc(F)nc2c1ncn2[C@@H]1O[C@H](CO)[C@@H](O)[C@@H]1O [fludarabine] + O=C(Nc1cccc(Cl)c1)Nc1ncc(CCNc2ncnc3ccsc23)s1 [SNS314] (first compound 0.2 µM, partner dose 0.0008 µM) | 111
22 | CS(=O)(=O)CCNCc1ccc(-c2ccc3ncnc(Nc4ccc(OCc5cccc(F)c5)c(Cl)c4)c3c2)o1 [lapatinib] + CN(NC(=O)CC(=O)NN(C)C(=S)c1ccccc1)C(=S)c1ccccc1 [STA4783] (first compound 0.8 µM, partner dose 0.006 µM) | 510
